# In the supplement of paper PMC6411743:
# The chains behind the UniProt entries cited, without tags or fusion partners. Where a name states a change or a piece, a line headed by the entry shows the natural chain unless it says otherwise.
# UniProt Q8IV63: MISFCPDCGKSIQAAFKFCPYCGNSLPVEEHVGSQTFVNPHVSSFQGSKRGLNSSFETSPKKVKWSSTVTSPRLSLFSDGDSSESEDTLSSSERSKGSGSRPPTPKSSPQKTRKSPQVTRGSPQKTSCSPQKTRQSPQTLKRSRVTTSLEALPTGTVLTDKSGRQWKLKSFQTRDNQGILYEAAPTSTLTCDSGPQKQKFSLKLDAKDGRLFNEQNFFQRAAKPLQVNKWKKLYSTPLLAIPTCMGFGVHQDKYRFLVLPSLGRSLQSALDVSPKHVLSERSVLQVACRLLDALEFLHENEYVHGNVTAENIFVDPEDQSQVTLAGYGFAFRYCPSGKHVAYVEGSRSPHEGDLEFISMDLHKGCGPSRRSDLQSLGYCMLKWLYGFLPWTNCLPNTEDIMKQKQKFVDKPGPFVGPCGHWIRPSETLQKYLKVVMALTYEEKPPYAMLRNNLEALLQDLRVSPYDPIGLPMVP
# UniProt O15111: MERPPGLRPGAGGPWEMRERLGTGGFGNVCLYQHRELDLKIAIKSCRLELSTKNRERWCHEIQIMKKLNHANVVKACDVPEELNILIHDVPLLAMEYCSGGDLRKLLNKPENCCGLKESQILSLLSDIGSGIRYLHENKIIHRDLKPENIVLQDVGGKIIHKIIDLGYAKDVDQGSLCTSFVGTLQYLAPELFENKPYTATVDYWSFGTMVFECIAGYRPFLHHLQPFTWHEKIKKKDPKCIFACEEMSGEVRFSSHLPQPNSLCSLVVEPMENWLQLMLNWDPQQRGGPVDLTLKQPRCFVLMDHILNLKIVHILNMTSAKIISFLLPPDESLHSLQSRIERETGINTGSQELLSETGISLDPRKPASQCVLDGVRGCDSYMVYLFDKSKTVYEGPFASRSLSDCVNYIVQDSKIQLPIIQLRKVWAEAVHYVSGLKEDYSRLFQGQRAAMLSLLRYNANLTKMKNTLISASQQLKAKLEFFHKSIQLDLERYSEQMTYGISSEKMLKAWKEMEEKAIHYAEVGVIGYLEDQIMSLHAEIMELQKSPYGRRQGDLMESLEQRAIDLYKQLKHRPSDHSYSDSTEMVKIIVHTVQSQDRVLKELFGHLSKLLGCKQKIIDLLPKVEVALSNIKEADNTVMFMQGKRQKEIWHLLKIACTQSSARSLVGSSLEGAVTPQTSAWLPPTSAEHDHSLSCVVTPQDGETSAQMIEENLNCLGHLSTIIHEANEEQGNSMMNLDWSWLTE
# UniProt O43719: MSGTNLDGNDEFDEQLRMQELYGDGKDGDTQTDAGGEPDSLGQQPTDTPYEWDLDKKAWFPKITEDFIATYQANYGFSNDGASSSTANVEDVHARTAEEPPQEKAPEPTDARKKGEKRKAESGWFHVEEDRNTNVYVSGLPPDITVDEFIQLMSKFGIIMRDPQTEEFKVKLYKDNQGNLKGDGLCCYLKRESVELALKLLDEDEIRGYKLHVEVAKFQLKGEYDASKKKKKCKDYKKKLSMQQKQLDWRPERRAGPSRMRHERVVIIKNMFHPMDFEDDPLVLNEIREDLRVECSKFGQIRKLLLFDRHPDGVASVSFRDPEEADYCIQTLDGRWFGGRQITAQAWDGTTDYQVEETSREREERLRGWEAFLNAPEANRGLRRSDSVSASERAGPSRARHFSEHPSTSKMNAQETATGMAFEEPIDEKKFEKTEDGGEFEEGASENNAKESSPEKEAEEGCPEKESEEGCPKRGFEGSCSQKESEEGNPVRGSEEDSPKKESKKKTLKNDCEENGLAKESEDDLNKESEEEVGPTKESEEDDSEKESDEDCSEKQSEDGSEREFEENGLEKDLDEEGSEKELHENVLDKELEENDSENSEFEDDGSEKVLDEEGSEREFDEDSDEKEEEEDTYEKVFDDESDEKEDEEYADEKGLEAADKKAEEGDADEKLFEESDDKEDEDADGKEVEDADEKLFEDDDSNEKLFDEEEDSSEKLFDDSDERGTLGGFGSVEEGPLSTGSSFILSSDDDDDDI
# UniProt O60493, whole entry: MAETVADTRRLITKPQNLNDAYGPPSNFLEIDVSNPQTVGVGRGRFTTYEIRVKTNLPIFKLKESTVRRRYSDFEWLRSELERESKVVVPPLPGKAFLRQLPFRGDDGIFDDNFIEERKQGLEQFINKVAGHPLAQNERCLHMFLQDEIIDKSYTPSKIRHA
# UniProt O00592: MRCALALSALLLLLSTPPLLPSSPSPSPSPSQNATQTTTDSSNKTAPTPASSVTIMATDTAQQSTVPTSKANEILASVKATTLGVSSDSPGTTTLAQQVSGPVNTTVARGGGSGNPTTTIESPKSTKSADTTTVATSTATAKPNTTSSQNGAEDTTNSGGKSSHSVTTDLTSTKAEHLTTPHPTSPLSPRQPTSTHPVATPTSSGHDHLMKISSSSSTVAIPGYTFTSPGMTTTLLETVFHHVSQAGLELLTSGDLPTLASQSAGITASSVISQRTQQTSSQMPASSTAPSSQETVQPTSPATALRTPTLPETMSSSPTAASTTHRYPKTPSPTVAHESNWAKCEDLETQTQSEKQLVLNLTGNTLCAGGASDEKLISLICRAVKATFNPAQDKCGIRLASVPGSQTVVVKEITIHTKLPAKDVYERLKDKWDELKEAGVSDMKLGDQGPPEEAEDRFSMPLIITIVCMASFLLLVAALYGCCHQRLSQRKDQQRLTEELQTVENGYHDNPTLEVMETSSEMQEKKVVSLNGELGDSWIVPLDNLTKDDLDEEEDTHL
# UniProt O60645: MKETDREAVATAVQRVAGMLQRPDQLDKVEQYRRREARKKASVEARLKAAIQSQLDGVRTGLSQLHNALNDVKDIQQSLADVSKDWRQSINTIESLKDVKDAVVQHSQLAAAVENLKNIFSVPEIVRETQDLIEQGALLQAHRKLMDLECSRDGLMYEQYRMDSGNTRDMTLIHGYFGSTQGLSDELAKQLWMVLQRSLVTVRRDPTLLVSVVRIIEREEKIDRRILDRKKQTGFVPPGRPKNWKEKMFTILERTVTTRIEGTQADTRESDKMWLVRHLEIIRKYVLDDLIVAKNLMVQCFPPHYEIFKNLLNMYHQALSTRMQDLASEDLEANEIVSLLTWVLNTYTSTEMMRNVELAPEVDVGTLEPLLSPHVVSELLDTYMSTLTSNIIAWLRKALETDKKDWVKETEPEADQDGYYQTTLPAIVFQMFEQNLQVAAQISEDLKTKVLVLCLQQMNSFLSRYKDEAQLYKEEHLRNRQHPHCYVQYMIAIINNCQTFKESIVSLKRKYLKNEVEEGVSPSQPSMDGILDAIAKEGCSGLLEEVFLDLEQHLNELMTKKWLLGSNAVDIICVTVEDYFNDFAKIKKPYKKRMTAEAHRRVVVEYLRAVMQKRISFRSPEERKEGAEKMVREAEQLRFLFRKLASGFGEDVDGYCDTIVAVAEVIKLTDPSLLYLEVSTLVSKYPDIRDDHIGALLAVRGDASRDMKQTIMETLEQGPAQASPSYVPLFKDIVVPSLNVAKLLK
# UniProt O14907: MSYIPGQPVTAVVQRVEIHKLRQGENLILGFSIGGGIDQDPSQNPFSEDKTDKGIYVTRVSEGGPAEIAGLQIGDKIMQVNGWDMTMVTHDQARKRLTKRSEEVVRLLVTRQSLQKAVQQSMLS
# UniProt O14964, whole entry: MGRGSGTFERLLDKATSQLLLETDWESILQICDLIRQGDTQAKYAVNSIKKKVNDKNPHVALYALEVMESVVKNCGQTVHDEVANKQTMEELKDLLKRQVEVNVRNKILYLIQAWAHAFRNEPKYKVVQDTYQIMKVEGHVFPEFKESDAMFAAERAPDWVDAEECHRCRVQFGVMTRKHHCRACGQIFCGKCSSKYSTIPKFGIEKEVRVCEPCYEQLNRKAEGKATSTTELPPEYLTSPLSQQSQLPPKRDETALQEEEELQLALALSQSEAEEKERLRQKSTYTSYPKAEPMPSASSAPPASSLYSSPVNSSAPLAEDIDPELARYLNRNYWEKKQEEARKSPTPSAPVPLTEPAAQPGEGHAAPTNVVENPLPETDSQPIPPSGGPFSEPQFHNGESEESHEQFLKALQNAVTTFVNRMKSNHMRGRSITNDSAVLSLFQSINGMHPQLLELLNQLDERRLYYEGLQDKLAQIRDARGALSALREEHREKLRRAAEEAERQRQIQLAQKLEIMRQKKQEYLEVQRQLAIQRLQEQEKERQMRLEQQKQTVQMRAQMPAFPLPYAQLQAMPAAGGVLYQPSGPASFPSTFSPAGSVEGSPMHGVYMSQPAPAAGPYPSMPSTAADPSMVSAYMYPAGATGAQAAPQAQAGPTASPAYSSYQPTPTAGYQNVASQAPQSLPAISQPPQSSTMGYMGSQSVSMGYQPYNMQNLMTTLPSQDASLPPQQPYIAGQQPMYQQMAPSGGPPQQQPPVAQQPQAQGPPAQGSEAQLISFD
# UniProt O00151: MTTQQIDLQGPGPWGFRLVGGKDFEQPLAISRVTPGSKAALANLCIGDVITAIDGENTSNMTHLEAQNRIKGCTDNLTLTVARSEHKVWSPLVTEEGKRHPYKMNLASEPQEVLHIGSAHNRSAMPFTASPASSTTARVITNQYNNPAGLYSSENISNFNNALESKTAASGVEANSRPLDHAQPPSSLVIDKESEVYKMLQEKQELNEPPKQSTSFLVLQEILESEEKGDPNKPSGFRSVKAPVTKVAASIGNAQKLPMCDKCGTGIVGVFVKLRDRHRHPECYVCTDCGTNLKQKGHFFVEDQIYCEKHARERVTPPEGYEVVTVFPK
# UniProt O14545: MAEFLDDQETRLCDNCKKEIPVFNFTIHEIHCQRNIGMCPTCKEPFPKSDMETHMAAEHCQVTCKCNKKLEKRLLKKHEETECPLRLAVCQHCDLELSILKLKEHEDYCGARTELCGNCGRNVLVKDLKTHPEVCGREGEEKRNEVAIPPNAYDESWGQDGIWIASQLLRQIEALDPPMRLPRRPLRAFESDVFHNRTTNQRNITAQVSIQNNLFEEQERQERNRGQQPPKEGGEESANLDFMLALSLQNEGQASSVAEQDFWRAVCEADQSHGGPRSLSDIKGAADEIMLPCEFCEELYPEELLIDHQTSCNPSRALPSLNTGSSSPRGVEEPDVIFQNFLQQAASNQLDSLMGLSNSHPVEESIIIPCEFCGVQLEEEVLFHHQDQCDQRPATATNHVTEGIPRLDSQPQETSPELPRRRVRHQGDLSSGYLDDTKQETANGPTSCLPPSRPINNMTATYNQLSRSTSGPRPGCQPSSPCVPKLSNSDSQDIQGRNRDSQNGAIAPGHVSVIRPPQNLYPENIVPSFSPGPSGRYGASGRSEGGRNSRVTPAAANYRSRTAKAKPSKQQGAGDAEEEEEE
# UniProt O43747: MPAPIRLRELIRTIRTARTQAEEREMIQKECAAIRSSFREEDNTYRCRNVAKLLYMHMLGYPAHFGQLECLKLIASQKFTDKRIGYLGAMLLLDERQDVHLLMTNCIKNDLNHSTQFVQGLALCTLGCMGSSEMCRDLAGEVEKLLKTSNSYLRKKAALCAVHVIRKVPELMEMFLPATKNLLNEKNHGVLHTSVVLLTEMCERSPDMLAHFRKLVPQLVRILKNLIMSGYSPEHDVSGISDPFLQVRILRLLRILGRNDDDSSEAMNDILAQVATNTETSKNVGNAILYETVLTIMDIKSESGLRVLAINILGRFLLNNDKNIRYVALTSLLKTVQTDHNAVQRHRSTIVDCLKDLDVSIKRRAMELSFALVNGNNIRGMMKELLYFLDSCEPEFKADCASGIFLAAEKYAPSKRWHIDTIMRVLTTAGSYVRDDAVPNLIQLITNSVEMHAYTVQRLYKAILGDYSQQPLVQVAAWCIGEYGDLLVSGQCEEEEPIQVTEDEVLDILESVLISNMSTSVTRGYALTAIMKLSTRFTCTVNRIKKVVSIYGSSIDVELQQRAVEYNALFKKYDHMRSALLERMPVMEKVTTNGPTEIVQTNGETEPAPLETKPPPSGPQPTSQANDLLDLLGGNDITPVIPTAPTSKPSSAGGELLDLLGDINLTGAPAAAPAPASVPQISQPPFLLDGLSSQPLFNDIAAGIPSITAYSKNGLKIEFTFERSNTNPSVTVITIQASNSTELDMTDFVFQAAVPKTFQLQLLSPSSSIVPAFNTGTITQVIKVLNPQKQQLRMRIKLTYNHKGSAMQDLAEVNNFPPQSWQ
# UniProt O00506, whole entry, looked up: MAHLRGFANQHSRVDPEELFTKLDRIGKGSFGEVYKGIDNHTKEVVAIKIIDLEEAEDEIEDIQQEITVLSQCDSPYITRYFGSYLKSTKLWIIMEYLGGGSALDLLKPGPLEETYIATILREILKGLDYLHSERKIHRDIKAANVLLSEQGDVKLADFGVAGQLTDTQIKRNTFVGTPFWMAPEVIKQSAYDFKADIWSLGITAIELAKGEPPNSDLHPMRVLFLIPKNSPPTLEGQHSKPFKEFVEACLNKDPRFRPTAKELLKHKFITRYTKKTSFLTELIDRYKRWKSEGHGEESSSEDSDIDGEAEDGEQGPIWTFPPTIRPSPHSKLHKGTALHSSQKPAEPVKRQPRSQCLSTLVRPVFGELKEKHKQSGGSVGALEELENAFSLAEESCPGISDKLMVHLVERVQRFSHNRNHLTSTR
# ± gives the standard deviation of the averaged measurements. Some of the results follow.
# Compound: Nc1nc2c(ncn2[C@@H]2O[C@H](COP(=O)(O)OP(=O)(O)OP(=O)(O)O)[C@@H](O)[C@H]2O)c(=O)[nH]1 [guanosine triphosphate]
# Assay: NP40-soluble protein abundance relative to vehicle (solubility fold change) (ratio); higher = more soluble protein in presence of GTP
# In short: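 Jurkat crude lysate prepared with a Dounce homogeniser was treated at eight concentrations spanning 0.1 to 10 mM, 10 min at room temperature then 3 min at 37 °C. Solubilisation with 0.8% NP40 and benzonase and ultracentrifugation preceded TMT labelling of the supernatant for LC-MS/MS. Fold change against the detergent-processed vehicle was determined per replicate from vsn-normalised intensities, across three independent experiments.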
Target,NP40-soluble protein abundance (concentration: 0.1mM),NP40-soluble protein abundance (concentration: 0.5mM),NP40-soluble protein abundance (concentration: 1mM),NP40-soluble protein abundance (concentration: 2mM),NP40-soluble protein abundance (concentration: 4mM),NP40-soluble protein abundance (concentration: 6mM),NP40-soluble protein abundance (concentration: 8mM),NP40-soluble protein abundance (concentration: 10mM)
UniProt O60869 and related entries,0.96 ± 0.05,0.959 ± 0.081,1 ± 0.064,0.969 ± 0.089,0.999 ± 0.15,1.06 ± 0.17,1.2 ± 0.15,1.3 ± 0.17
ZNF609 (UniProt O15014),1.01 ± 0.058,1 ± 0.031,1.05 ± 0.015,1.07 ± 0.071,1.06 ± 0.04,1.08 ± 0.037,1.1 ± 0.076,1.13 ± 0.095
PRPSAP2 (UniProt O60256),1.06 ± 0.11,1.15 ± 0.19,1.16 ± 0.23,1.33 ± 0.36,1.33 ± 0.34,1.32 ± 0.37,1.24 ± 0.28,1.26 ± 0.3
M0QYA8 and related entries (UniProt Q8IV63),1.01 ± 0.04,1.061 ± 0.0092,1.13 ± 0.058,1.2 ± 0.041,1.28 ± 0.058,1.26 ± 0.042,1.31 ± 0.081,1.29 ± 0.083
UniProt O15111,1.03 ± 0.04,1.04 ± 0.07,0.963 ± 0.052,0.964 ± 0.081,0.961 ± 0.06,0.927 ± 0.061,0.891 ± 0.013,0.887 ± 0.024
UniProt O43422,0.913 ± 0.15,0.925 ± 0.18,0.825 ± 0.1,0.842 ± 0.11,0.842 ± 0.1,0.877 ± 0.1,0.843 ± 0.12,0.799 ± 0.1
PMM2 (UniProt O15305),0.977 ± 0.022,0.962 ± 0.021,0.933 ± 0.06,0.896 ± 0.049,0.883 ± 0.074,0.869 ± 0.058,0.875 ± 0.07,0.85 ± 0.066
UniProt O00182 and related entries,1.04 ± 0.04,1.05 ± 0.022,0.98 ± 0.011,0.987 ± 0.05,0.996 ± 0.058,0.997 ± 0.039,0.9929 ± 0.0081,0.9652 ± 0.0046
AQR (UniProt O60306),1.08 ± 0.033,1.09 ± 0.085,1.04 ± 0.052,1.03 ± 0.12,1.04 ± 0.12,1.02 ± 0.15,0.995 ± 0.077,0.957 ± 0.082
UniProt O14787-2,1.04 ± 0.09,0.98 ± 0.093,0.992 ± 0.099,0.981 ± 0.11,0.997 ± 0.12,0.936 ± 0.1,0.962 ± 0.11,0.979 ± 0.07
UniProt O43156,1.02 ± 0.069,1.02 ± 0.085,0.951 ± 0.06,0.974 ± 0.1,0.96 ± 0.087,0.926 ± 0.067,0.887 ± 0.035,0.911 ± 0.044
HNRNPR (UniProt O43390),1.01 ± 0.033,1.08 ± 0.077,1.06 ± 0.11,1.14 ± 0.18,1.17 ± 0.2,1.19 ± 0.2,1.18 ± 0.19,1.17 ± 0.16
UniProt O14828 and related entries,0.943 ± 0.032,0.912 ± 0.11,0.918 ± 0.061,0.88 ± 0.091,0.887 ± 0.051,0.867 ± 0.099,0.887 ± 0.017,0.882 ± 0.094
HTATSF1 (UniProt O43719),0.933 ± 0.054,0.957 ± 0.075,0.948 ± 0.08,0.912 ± 0.091,0.885 ± 0.087,0.912 ± 0.1,0.903 ± 0.078,0.882 ± 0.12
GAK (UniProt O14976),0.991 ± 0.057,1.01 ± 0.049,0.966 ± 0.028,0.991 ± 0.075,1 ± 0.066,0.986 ± 0.056,0.957 ± 0.06,1.01 ± 0.092
SNX3 (UniProt O60493),0.89 ± 0.038,0.86 ± 0.022,0.98 ± 0.027,0.976 ± 0.054,0.925 ± 0.054,0.943 ± 0.083,0.859 ± 0.12,0.946 ± 0.081
UniProt O00592 and related entries,0.947 ± 0.056,0.883 ± 0.0096,0.998 ± 0.045,1.01 ± 0.033,0.948 ± 0.02,0.981 ± 0.035,0.913 ± 0.11,1.01 ± 0.031
UniProt O60645 and related entries,1.03 ± 0.057,1.02 ± 0.034,1.01 ± 0.046,0.98 ± 0.052,0.996 ± 0.051,0.982 ± 0.065,0.978 ± 0.072,0.976 ± 0.055
M0R117 and related entries (UniProt Q02543),1.06 ± 0.1,1.02 ± 0.053,1 ± 0.19,1.02 ± 0.2,0.938 ± 0.21,0.92 ± 0.2,0.885 ± 0.27,0.956 ± 0.25
TAX1BP3 (UniProt O14907),1.05 ± 0.15,0.993 ± 0.053,1.07 ± 0.11,1.02 ± 0.07,0.962 ± 0.015,1.03 ± 0.1,0.994 ± 0.074,0.996 ± 0.05
TRIM38 (UniProt O00635),1.02 ± 0.12,1.04 ± 0.12,0.963 ± 0.022,0.97 ± 0.12,0.971 ± 0.062,0.962 ± 0.056,0.918 ± 0.044,0.943 ± 0.019
HGS (UniProt O14964),0.95 ± 0.063,0.937 ± 0.071,0.918 ± 0.064,0.869 ± 0.071,0.865 ± 0.05,0.863 ± 0.072,0.877 ± 0.073,0.863 ± 0.065
SCD (UniProt O00767),0.982 ± 0.032,1.02 ± 0.018,0.929 ± 0.036,0.916 ± 0.068,0.867 ± 0.018,0.865 ± 0.028,0.856 ± 0.018,0.82 ± 0.053
PDLIM1 (UniProt O00151),0.942 ± 0.043,0.918 ± 0.057,0.948 ± 0.037,0.887 ± 0.073,0.905 ± 0.067,0.898 ± 0.092,0.93 ± 0.063,0.884 ± 0.061
UniProt O00148,1.05 ± 0.053,1.03 ± 0.073,0.931 ± 0.03,0.931 ± 0.071,0.933 ± 0.054,0.949 ± 0.046,0.899 ± 0.051,0.865 ± 0.085
UniProt O14545 and related entries,1.09 ± 0.079,1.01 ± 0.049,1.08 ± 0.15,1.05 ± 0.062,1.04 ± 0.14,1.07 ± 0.11,1.06 ± 0.099,1.03 ± 0.13
GMDS (UniProt O60547),1.04 ± 0.019,1.06 ± 0.056,0.977 ± 0.012,0.979 ± 0.031,0.964 ± 0.05,0.963 ± 0.031,0.9495 ± 0.0086,0.93 ± 0.029
UniProt O60830 and related entries,1.82 ± 0.63,1 ± 0.039,0.957 ± 0.15,1.01 ± 0.13,1 ± 0.11,0.969 ± 0.13,0.942 ± 0.051,0.955 ± 0.045
UniProt O43747 and related entries,1.04 ± 0.075,1.04 ± 0.086,0.965 ± 0.04,0.961 ± 0.085,0.949 ± 0.089,0.923 ± 0.067,0.932 ± 0.035,0.912 ± 0.082
UniProt O00506,1.05 ± 0.029,1.04 ± 0.051,1.01 ± 0.051,1.03 ± 0.062,0.994 ± 0.02,0.973 ± 0.056,0.997 ± 0.03,1.02 ± 0.041

# In a second layout: entries from further up
Target	NP40-soluble protein abundance (concentration: 0.1mM)	NP40-soluble protein abundance (concentration: 0.5mM)	NP40-soluble protein abundance (concentration: 1mM)	NP40-soluble protein abundance (concentration: 2mM)	NP40-soluble protein abundance (concentration: 4mM)	NP40-soluble protein abundance (concentration: 6mM)	NP40-soluble protein abundance (concentration: 8mM)	NP40-soluble protein abundance (concentration: 10mM)
UniProt O15111	1.03 ± 0.04	1.04 ± 0.07	0.963 ± 0.052	0.964 ± 0.081	0.961 ± 0.06	0.927 ± 0.061	0.891 ± 0.013	0.887 ± 0.024
UniProt O43422	0.913 ± 0.15	0.925 ± 0.18	0.825 ± 0.1	0.842 ± 0.11	0.842 ± 0.1	0.877 ± 0.1	0.843 ± 0.12	0.799 ± 0.1
